Assay results from the supplement of paper PMC12889115.
This is one part of the list. These are raw signals, not scaled to a control.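 First-pass screen: polymyxin B was added at a level that permeabilizes the Salmonella outer membrane while sparing the inner membrane. DMSO wells, with and without polymyxin B, defined maximum growth. Because plates differed from one another, each plate's data were ranked separately and the compounds with the lowest OD600 were carried forward as hits.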

Test system: Salmonella enterica serovar Typhimurium SL1344
Experiment: bacterial growth OD600 after 18 h with compound and polymyxin B; higher = more bacterial growth (less inhibition)
Conditions: 50 µM, Mueller-Hinton broth

Compound	bacterial growth OD600 (polymyxin B 1 µg/mL)	bacterial growth OD600 (polymyxin B 0.75 µg/mL)
CN(C)c1ncc2c(n1)CCCC2NC(=O)CCc1cnn(C)c1 (stereo unspecified)	0.969	–
O=C(c1cscn1)N1CCC2(CCCN(Cc3ccc(F)cc3)C2=O)C1 (stereo unspecified)	0.923	–
COc1cccc(CN2CCC(C(=O)Nc3ccccc3-c3cccc(OC)c3)CC2)c1	0.005	–
COc1ccc2ccc(OCc3nc(C(=O)NC4CCC4)co3)cc2c1	0.883	–
Cc1ccc(CNC(=O)c2coc(COc3ccccc3F)n2)s1	–	0.543
CN1CCC(N(C)C(=O)CCC2CCCN(Cc3ccc(C#CC(C)(C)O)cc3)C2)CC1 (stereo unspecified)	–	0.794
O=C(c1ccc(N2CCC(NCc3scnc3-c3ccccc3)CC2)cc1)N1CCOCC1	–	0.792
C#Cc1cccc(C(=O)N2CCc3onc(-c4cccc(F)c4)c3C2)c1	–	-0.001
CCCN(CC1CC1)C(=O)c1cn(CCc2ccccn2)cc(C(=O)NCc2ccc(C)cc2)c1=O	–	0.892
Cc1cc(C(=O)NCC2CCCN(S(=O)(=O)/C=C/c3ccccc3)C2)no1 (stereo unspecified)	–	0.15
O=C(c1ccc(Cn2cnnn2)cc1)N1CCCC(CCc2ccccc2)C1 (stereo unspecified)	–	0.003
COc1cccc(CC2(CO)CCCN(Cc3cc4ccccc4o3)C2)c1 (stereo unspecified)	1.04	–
COc1c(C)cc(C(=O)C2CCCN(Cc3nc4ccccc4n3C)C2)cc1C (stereo unspecified)	0.015	–
CC(C)N(C)CC1(O)CCCN(CCC2CCCCC2)C1=O (stereo unspecified)	–	0.825
CCOC(=O)N1CCC(NC2CCN(c3ccc(NC(=O)c4ccccc4F)cc3)CC2)CC1	–	0.797
COCc1c(C(=O)NCC2(N3CCOCC3)CCCC2)cnn1-c1nccc(-c2cccs2)n1	–	0.813

Compound	bacterial growth OD600 (polymyxin B 1 µg/mL)	bacterial growth OD600 (polymyxin B 0.75 µg/mL)
O=C1CCCN1CC1CCN(C(=O)C2CCC(=O)N(C3CCCC3)C2)CC1 (stereo unspecified)	0.862	–
O=C(CCC1CCN(Cc2cccc3c2OCO3)CC1)NCc1cccnc1	0.014	–
Cc1ccc2c(CC(=O)NCCN3Cc4ccccc4OC(c4ccccc4F)C3)cc(=O)oc2c1 (stereo unspecified)	–	0.803
CCn1cc(C(=O)N2CCc3onc(-c4ccc5c(c4)OCO5)c3C2)cn1	–	0.663
CC1(C)CC(=O)C=C(C(=O)N2CCCC(N3CCN(c4ccccc4F)CC3)C2)O1 (stereo unspecified)	0.991	–
CCOc1ccccc1CN1CCN(Cc2c(F)cccc2F)CC1CCO (stereo unspecified)	1.09	–
O=C(CCOc1ccccc1)Nc1ccnn1C1CCN(C2CCOCC2)CC1	0.751	–
CC(C)(C)C(=O)Nc1ccnn1C1CCN(C(=O)CCc2ccc(F)cc2)CC1	1.02	–
CCN(CC)CCC(=O)NCc1nc(NCc2cccc(C(F)(F)F)c2)c2ccccc2n1	–	1.04
COc1ccc(CN2CC[C@@H](N3CCCCCC3)[C@H](O)C2)c(F)c1	–	0.768
CCOC(=O)N1CCC(NC(=O)CN2Cc3ccccc3OC(c3ccccc3OC)C2)CC1 (stereo unspecified)	–	0.004
C=CCCC(=O)N1CCCC(N2CCN(c3cccc(Cl)c3)CC2)C1 (stereo unspecified)	0.942	–
O=C(NCc1ccccn1)c1cccc(OC2CCN(C(=O)C3=CCCC3)CC2)c1	1.24	–
O=C(NC1Cc2ccccc2C1)c1cc(CCc2ccccc2)no1	–	0.802
CN(C(=O)c1cc2c([nH]c1=O)CCCC2)C1CCCN(Cc2ccccc2F)C1 (stereo unspecified)	–	0.858

One compound at a time, as listed above. Values in the order: bacterial growth OD600 (polymyxin B 1 µg/mL) | bacterial growth OD600 (polymyxin B 0.75 µg/mL)
CC(C)(C)C(=O)Nc1ccnn1C1CCN(C(=O)CCc2ccc(F)cc2)CC1 in the list: 1.02 | –
CCOc1ccccc1CN1CCN(Cc2c(F)cccc2F)CC1CCO (stereo unspecified) in the list: 1.09 | –
